# Experimental data as given in publication doi:10.1101/2024.12.18.629111 (bioRxiv, 2024).
# These are yes or no findings as the source states them, for the method shown. Some entries that bind do so weakly or less than the wild type. Where a sequence is shown, tags or fusion partners need not be part of it.
# T1: CBP-Nmd4-His (S. cerevisiae) (UniProt Q12129)
# T1 sequence: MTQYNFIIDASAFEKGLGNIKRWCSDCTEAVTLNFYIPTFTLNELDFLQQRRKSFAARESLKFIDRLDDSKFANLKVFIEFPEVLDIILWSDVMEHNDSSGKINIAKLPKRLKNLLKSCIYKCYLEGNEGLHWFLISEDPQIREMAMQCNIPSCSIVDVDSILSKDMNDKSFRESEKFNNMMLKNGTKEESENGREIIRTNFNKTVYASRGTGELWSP
# T2: CBP-Ebs1 (aa 1-591) (S. cerevisiae) (UniProt Q03466)
# T2 sequence: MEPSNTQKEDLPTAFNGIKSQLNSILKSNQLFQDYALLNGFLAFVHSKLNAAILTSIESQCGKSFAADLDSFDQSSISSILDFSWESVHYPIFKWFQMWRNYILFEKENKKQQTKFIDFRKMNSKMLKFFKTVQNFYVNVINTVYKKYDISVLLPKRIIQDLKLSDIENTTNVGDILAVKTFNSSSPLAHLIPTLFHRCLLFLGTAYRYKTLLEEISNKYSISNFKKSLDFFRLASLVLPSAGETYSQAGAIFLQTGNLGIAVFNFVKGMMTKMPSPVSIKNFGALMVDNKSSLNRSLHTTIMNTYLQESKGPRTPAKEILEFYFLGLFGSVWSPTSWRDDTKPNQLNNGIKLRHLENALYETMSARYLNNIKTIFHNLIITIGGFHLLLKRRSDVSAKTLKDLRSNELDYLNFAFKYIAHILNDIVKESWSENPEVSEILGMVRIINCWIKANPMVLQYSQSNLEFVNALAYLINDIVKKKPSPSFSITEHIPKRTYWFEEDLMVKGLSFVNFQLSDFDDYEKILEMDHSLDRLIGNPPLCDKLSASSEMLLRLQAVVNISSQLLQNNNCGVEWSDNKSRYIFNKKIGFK
# T3: CBP-Upf1-CH-HD (S. cerevisiae, UniProt P30771 54-851)
# T3 sequence (looked up): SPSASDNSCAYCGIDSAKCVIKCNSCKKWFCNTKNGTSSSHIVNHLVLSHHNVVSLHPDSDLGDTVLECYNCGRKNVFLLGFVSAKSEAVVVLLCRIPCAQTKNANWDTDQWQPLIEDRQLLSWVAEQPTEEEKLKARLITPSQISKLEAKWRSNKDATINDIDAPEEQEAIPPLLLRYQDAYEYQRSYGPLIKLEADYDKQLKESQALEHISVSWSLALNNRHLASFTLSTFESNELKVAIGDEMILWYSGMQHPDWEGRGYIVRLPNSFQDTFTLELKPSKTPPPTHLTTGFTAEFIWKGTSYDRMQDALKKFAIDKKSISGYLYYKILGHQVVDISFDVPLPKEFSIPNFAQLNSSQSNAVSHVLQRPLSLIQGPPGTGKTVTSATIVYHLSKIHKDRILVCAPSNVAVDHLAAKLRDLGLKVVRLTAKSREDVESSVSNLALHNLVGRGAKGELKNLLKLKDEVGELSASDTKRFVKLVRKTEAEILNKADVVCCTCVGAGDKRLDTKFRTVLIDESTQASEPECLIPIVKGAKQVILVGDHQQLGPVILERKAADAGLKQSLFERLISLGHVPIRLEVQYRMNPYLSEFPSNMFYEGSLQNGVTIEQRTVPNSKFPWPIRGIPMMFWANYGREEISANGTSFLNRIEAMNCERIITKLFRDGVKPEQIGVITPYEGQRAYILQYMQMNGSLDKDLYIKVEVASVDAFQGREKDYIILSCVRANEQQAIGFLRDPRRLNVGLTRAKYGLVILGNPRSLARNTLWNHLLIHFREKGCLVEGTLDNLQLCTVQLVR
# T4: CBP-Upf1-FL (S. cerevisiae, UniProt P30771 1-971)
# T4 sequence (looked up): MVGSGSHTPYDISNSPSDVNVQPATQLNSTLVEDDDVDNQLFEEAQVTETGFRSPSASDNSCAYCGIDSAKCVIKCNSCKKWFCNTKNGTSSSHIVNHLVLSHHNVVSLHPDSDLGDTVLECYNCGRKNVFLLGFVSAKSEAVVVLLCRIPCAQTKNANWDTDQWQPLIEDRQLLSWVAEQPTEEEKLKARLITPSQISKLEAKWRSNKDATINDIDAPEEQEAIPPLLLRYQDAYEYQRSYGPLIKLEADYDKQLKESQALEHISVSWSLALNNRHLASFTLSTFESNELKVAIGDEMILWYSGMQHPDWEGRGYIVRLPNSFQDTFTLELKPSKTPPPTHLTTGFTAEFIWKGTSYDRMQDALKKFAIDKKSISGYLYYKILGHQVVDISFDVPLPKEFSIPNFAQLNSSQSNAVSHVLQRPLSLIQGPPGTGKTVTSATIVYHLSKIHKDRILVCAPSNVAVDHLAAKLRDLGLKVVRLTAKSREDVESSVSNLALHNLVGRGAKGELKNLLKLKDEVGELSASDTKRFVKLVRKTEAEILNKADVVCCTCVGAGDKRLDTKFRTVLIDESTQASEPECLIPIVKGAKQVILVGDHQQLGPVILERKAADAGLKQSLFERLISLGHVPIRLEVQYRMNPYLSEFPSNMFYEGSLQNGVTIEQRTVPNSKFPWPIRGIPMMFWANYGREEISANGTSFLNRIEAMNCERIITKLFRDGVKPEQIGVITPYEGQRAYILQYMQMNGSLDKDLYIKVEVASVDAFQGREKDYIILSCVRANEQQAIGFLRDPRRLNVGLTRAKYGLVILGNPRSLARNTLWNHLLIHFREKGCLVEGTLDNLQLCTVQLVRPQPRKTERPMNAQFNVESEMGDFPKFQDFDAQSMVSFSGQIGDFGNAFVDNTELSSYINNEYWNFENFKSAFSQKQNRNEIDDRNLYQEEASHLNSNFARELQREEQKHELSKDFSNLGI
# T5: CBP-Upf1-Ct (S. cerevisiae) (UniProt P30771)
# T5 sequence: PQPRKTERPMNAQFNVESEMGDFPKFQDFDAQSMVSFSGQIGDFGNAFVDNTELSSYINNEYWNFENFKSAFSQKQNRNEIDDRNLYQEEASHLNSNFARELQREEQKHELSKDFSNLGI
# T6: GST-Dcp2-UBD (S. cerevisiae) (UniProt P53550)
# T6 sequence: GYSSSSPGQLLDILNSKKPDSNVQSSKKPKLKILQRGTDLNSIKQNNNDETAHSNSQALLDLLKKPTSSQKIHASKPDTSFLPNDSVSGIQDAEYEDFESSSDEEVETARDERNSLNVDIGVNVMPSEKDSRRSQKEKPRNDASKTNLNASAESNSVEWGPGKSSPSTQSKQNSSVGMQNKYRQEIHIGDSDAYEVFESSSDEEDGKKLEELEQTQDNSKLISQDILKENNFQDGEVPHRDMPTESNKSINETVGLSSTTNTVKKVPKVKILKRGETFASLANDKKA
# B1: GST-Ebs1 (aa 1-591) (domain or fragment, S. cerevisiae, UniProt Q03466 1-591, looked up)
# chain: T2 sequence
# B2: HisZZ-Nmd4 (protein, UniProt Q12129 1-218)
# chain: T1 sequence
# B3: Upf2(933-1089)-His (domain or fragment, S. cerevisiae, UniProt P38798 933-1089, looked up)
# chain: SDSDLEYGGDLDADRDIEMKRMYEEYERKLKDEEERKAEEELERQFQKMMQESIDARKSEKVVASKIPVISKPVSVQKPLLLKKSEEPSSSKETYEELSKPKKIAFTFLTKSGKKTQSRILQLPTDVKFVSDVLEEEEKLKTERNKIKKIVLKRSFD
# B4: TS-Nmd4-His (natural protein, S. cerevisiae, UniProt Q12129 1-218, looked up)
# chain: T1 sequence
# B5: CBP-Ebs1 (aa 1-591) (domain or fragment, UniProt Q03466 1-591)
# chain: T2 sequence
# Columns and labels:
# Test in all cases: pull-down
# [1] = biological target: T1, CBP-Nmd4-His (S. cerevisiae)
# [2] = biological target: T2, CBP-Ebs1 (aa 1-591) (S. cerevisiae)
# CBP-Upf1-CH-HD = biological target: T3, CBP-Upf1-CH-HD
# CBP-Upf1-FL = biological target: T4, CBP-Upf1-FL
# [3] = biological target: T5, CBP-Upf1-Ct (S. cerevisiae)
# [4] = biological target: T6, GST-Dcp2-UBD (S. cerevisiae)
binder,measurement,setting,value
B1,binding,[1],binds weakly
B2,binding,[2],binds weakly
B3,binding,CBP-Upf1-CH-HD,binds weakly
same,binding,CBP-Upf1-FL,binds weakly
B4,binding,[3],no binding
B5,binding,[4],no binding
